Results are given in words; binding and its absence hold for the method and conditions named. Binding seen in cells or lysates may run through a third protein. A result given as binding can be weak or reduced; the word gives no strength.
Molecular target: PSMB5-FLAG (UniProt P28074)
Assay: co-IP

Sequences of proteins named here, by UniProt entry; tags and fusion partners are left off. A change or cut given only in a name is not applied to a line headed by its entry.
UniProt P28074: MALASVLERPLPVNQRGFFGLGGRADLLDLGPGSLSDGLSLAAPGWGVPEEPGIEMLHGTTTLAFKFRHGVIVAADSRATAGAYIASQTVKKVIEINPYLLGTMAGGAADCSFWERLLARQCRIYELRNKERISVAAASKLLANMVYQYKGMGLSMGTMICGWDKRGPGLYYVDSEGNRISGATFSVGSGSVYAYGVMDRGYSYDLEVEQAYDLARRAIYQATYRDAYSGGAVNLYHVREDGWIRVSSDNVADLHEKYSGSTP
UniProt P11387: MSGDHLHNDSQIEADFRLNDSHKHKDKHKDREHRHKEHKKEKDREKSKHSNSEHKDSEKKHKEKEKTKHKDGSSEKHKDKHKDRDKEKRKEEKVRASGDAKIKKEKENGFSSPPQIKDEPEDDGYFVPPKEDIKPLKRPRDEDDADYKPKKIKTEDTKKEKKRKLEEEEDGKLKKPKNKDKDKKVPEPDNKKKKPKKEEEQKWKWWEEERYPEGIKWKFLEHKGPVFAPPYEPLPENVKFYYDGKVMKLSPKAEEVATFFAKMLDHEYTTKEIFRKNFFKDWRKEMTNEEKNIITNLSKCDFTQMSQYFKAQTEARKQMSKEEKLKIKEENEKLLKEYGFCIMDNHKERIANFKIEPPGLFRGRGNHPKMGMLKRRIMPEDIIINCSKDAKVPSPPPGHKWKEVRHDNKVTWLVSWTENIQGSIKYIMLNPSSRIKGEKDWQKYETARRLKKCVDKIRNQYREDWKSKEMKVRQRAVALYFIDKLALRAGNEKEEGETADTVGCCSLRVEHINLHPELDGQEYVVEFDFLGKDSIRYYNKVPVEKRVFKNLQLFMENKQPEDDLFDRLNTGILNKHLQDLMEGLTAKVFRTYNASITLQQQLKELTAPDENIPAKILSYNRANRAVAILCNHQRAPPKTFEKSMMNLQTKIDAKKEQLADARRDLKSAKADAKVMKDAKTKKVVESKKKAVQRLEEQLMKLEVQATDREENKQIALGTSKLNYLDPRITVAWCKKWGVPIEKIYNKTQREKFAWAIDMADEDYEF
UniProt Q02880: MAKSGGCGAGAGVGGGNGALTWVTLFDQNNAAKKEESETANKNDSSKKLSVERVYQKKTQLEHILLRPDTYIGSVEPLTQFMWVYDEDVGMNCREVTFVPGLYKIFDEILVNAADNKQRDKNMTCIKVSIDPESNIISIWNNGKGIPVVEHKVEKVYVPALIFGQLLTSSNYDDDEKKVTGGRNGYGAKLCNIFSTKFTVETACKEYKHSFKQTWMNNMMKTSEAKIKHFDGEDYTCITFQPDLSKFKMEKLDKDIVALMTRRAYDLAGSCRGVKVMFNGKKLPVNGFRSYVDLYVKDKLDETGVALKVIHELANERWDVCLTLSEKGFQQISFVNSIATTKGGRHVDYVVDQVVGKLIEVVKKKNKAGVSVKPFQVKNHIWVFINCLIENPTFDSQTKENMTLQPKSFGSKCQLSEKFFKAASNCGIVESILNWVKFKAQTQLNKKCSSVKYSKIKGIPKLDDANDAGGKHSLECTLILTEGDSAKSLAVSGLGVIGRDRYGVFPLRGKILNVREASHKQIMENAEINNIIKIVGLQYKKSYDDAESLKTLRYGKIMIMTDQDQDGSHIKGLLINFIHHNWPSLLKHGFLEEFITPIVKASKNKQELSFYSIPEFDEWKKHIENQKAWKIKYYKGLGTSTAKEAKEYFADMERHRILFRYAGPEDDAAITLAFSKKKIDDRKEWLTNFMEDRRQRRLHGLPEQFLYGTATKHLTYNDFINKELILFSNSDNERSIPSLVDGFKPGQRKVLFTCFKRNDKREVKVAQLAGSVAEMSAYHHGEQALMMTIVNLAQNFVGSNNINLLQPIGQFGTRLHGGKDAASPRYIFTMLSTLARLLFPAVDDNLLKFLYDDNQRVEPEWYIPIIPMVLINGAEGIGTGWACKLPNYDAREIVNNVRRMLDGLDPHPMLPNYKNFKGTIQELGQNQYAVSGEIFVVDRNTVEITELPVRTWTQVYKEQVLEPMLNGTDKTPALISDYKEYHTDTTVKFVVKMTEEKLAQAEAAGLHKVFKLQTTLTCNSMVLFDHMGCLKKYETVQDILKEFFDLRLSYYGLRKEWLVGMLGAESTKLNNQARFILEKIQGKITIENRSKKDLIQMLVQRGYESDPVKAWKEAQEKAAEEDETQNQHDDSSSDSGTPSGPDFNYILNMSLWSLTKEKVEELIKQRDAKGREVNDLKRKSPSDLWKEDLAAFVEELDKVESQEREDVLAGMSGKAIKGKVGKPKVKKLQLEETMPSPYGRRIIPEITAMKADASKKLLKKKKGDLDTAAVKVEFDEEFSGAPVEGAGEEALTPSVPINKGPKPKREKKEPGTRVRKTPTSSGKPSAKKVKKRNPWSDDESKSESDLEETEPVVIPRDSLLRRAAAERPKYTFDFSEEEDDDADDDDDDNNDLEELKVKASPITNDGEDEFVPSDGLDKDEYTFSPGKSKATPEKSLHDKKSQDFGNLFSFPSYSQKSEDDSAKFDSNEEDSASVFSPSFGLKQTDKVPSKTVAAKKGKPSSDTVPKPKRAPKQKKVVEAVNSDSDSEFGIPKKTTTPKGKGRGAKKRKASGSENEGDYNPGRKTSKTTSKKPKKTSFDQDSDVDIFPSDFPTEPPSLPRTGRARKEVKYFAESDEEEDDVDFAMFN

Row | binding | Substance
1 | binds | TOP1 (from UniProt P11387 1-765)
2 | binds | TOP2β (from UniProt Q02880 1-1626)
